In PMC10543288 one finds binding data, which are given here for one substance.

Amino acid sequences for entries named in this document (tags omitted).
UniProt Q8VI67: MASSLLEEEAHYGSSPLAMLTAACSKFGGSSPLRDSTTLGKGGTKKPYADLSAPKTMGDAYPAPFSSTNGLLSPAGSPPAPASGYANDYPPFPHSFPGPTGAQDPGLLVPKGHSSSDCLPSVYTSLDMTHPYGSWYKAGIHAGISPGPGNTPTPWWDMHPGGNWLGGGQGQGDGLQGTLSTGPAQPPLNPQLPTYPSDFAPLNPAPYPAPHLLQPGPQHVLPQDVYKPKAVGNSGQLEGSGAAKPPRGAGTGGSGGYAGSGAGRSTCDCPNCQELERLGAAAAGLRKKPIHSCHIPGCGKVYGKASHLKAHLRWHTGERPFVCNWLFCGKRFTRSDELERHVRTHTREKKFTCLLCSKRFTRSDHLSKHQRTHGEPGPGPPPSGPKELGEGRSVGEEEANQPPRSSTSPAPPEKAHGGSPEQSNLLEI
UniProt Q64205: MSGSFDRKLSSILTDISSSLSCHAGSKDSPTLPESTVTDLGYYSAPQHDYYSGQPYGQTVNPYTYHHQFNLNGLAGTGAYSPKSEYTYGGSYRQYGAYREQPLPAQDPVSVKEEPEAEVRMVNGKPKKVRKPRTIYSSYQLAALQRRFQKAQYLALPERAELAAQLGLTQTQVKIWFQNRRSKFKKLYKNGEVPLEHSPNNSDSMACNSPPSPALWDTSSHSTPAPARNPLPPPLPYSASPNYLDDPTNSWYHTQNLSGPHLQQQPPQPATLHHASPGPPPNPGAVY

These are yes or no findings as the source states them, for the method shown. In cells and extracts the contact can be indirect. Some results given as binding are weak or reduced against the parent protein; the word gives no strength.

The target in this assay is Flag-tagged full-length Sp7 (mouse) (UniProt Q8VI67). Kind of assay: co-IP; whole cell extracts of iMDP3 and HEK293T cells transfected for 48 h with Flag- and Myc-tagged constructs; precipitated with anti-Flag or anti-Myc antibody and protein G agarose beads, IgG as negative control; Western blotting. A general note: A western blot detects proteins with antibodies after separation by electrophoresis.

Consider “Myc-tagged full-length Dlx3 (from UniProt Q64205 1-287)”, for which the binding result is “binds”.
